Measured values from paper PMC3917433.
Results are given in words; binding and its absence hold for the method and conditions named. Binding seen in cells or lysates may run through a third protein. Some entries that bind do so weakly or less than the wild type.

Protein sequences, listed by entry. Tags and fused reporters are not part of them.
UniProt P13202: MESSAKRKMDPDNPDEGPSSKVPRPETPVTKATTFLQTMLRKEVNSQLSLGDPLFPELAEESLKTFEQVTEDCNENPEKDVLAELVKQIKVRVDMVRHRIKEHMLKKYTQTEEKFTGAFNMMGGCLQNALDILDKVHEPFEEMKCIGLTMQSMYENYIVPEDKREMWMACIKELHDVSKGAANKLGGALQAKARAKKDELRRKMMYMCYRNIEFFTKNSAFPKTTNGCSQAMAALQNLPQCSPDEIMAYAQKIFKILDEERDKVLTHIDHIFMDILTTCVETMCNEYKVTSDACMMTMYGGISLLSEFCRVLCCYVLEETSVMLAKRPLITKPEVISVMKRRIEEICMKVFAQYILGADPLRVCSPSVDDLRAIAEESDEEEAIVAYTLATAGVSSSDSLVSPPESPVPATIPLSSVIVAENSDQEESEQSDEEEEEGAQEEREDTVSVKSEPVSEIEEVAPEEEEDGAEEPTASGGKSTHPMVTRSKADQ
UniProt P52756: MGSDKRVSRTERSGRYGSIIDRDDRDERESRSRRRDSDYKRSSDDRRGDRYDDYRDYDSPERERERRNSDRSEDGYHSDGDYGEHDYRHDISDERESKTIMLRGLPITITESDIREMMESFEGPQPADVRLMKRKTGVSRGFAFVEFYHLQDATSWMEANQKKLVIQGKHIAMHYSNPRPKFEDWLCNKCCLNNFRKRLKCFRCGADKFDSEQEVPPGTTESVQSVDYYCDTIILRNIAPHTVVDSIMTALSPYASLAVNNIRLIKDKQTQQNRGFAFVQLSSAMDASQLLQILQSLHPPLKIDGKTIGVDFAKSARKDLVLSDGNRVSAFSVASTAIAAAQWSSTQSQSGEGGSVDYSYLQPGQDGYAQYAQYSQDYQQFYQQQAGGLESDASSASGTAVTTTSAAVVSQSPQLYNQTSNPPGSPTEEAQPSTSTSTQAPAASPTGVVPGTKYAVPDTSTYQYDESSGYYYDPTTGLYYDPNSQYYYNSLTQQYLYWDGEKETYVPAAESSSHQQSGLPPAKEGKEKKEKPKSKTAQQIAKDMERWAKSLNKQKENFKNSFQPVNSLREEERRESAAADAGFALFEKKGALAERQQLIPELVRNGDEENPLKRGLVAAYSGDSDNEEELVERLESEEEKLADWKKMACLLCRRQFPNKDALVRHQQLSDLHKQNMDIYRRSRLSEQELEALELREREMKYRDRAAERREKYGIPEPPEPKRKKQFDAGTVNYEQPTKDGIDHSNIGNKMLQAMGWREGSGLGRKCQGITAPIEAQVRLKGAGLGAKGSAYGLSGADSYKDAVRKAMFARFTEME
UniProt P98175: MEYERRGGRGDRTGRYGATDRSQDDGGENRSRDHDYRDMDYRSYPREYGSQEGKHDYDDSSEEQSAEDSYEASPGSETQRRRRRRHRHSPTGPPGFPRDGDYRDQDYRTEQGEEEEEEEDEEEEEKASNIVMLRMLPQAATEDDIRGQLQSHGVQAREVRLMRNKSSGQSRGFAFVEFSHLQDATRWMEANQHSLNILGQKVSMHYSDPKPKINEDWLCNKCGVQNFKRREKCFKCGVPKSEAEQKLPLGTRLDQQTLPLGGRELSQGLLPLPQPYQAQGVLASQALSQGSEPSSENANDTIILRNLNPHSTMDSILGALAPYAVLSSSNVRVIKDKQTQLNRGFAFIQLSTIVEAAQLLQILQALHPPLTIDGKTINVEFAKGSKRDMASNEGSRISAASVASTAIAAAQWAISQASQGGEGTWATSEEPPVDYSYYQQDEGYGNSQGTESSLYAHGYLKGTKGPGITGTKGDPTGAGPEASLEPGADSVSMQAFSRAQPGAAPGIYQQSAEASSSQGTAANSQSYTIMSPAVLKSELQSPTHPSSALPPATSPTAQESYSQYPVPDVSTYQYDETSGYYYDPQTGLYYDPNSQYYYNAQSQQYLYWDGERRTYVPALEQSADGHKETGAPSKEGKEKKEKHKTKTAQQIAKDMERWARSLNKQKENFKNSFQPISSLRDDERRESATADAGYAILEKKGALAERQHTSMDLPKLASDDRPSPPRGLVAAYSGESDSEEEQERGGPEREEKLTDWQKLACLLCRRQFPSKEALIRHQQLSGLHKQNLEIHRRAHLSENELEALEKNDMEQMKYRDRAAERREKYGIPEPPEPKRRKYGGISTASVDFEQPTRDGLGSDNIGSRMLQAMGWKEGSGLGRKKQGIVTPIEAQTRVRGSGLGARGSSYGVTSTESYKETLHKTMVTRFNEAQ

Biological target: Human cytomegalovirus immediate-early protein 1 (human cytomegalovirus (HCMV)) (UniProt P13202)
Assay: co-IP

Substance | binding
RBM5 (from UniProt P52756 1-815) | binds
RBM 10 (from UniProt P98175 1-930) | binds
